# Laboratory results: PubChem BioAssay AID1347426 (Functional Genomics Laboratory (NCATS/FGL), 2020)
# Out of some 31,000 sequences screened, about 1,400 (4.5%) were called active.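 How the source made its calls: active means median seed-adjusted z-score above 1 or below -1; inactive means the rest.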 This is one part of the list.
# Assay: Novel Modifiers of Survival Motor Neuron (SMN) Protein: Gene Identification via Genome-wide siRNA Screen;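 further: luminescence tracks full-length SMN protein made from the SMN2 reporter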
# Conditions: HEK293T SMN2-luciferase reporter, siRNA knockdown, 72 h; actives lie on both sides
# How it was run: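 Each of three siRNAs per gene is reverse-transfected (1 pmol) into reporter HEK293T cells whose luciferase output tracks SMN protein level. After 72 h culture, ONE-Glo luminescence is control-normalized, log10-transformed and MAD-standardized; Common Seed Analysis deprioritizes seed-driven hits.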
row,Sequence,median seed-adjusted z-score
1,CCUUGUUGCUCAUCGGAGATT against ZNF606,inactive: 0.118
2,GGAUCACAUUGACAGCAAUTT against FOXP2,inactive: 0.222
3,GAUUGAAAUAUGACGUGAATT against TSN,inactive: 0.572
4,AGAUGAUACUAAUGUGACATT against RAB9B,inactive: -0.0301
5,CCACCUCAGGCUAUGCUAATT against SP7,inactive: -0.0435
6,GCUCUAAGAUGAUCGACAATT against GNAI2,inactive: 0
7,CCAACUAAAUCUCCAACAATT against RASGRF1,inactive: 0
8,CUACCAAAGAAAAAGUCAATT against RNASE9,inactive: 0.188
9,CAACAUUGGAUCCUACAUATT against CDK7,inactive: -0.524
10,CAUCCAUUGUGGAGGCUAUTT against IL21R,inactive: 0.0068
11,CCGAGGUGUUCUUUCUCUATT against CHST2,inactive: 0
12,CAACAACCCUGAGCGAUUUTT against TRIM58,inactive: -0.582
13,CUCUGGAAUUAGUCACAGATT against MMAB,inactive: 0
14,GGACUUGGAUUCGAGGAUATT against COL15A1,inactive: 0.161
15,CCGCUCAACUUGAACAUGATT against HOXD12,inactive: -0.18
16,CGAUAUUACUGGUCGUGGATT against ADH7,inactive: -0.388
17,GAUUACUUCUUGACUAUCATT against OCRL,inactive: -0.545
18,CGGUACUGGAGAACACGGATT against MFI2,inactive: 0.365
19,GCAGAACUGUUGCGGAUUATT against TOPBP1,inactive: 0.0888
20,CGGUUACGACUGGAUGGUATT against SCML2,inactive: -0.538
21,GAACAACAGAAAUAUGAGATT against TTC35,inactive: -0.0898
22,GAAUAAAGUCUGGAAUGUUTT against TRIM7,inactive: -0.845
23,GGUACUUCGUGAUCCGCAUTT against NECAP2,inactive: -0.539

row,Sequence,median seed-adjusted z-score
1,CGAAGACACUUUCCGGCAATT against ATP6V1F,inactive: -0.428
2,GAUGCGAUUUGAUGAGAUATT against EPS15L1,inactive: -0.0511
3,GGCCUCUACUUGCACAACATT against AMIGO3,inactive: 0.752
4,AGGCCCGAGUGCAAAAGUATT against ARX,inactive: 0.756
5,CCGUGCUGACCUCCAAAUATT against HBA1,active: -1.03
6,UCACGGCCAUGAGUCUAGATT against LTB4R,inactive: 0.498
7,GCCCUACCAUAAUCGUCAATT against TM9SF3,inactive: -0.267
8,GGAACGACAUGGAGACCAUTT against PTGES,inactive: -0.0851
9,CACCAACGUGUACAACAAATT against CACNA2D4,inactive: -0.0464
10,UCGUGGAGGUGAUCUAUUATT against RAB6C,active: -1.08
11,GGAUCUUCAAGCAAGGGUATT against ZNF462,inactive: 0.0487
12,AGGAGUUCAUCAUGCUGAUTT against S100A9,inactive: -0.0953
13,GCAGCAUACAGGAAUACCATT against ATRNL1,inactive: -0.142
14,GCCUCGUGACUUUCGAAGATT against PHF19,inactive: -0.195
15,GACACCUUCUUAGACGAUATT against AMPD1,inactive: 0.378
16,GGACUGAGAGGCAAGAGUUTT against HLA-A,inactive: 0.189
17,CAUUAUUGCAUGCAUAGAATT against CAPZA2,inactive: 0
18,CCGUAUCUGUCACAAUAAATT against CST6,inactive: -0.237
19,GUCUUCUACCCAACCCUGATT against CHID1,inactive: 0.199
20,CCUGAUGUCUUAUCUCAGATT against ZNF398,inactive: 0.119
21,GAGUAUCCUGAAUACUUUUTT against HSD17B12,inactive: 0.0719
22,GCUUAUGGUUGAUCAGUUATT against RNF7,active: -1.18
23,GCAAAGCGGUUGAGGGAAATT against ISLR,inactive: 0.00807

row,Sequence,median seed-adjusted z-score
1,UGAAGGCUGUUGCGCCGAATT against EGR4,inactive: 0
2,CAGUGAAACUGCACCUCUATT against TGM1,inactive: -0.286
3,GCACAACAGAUACUUCGUUTT against ERCC3,inactive: 0.155
4,GGAACACGAUGAACCUAUUTT against NAP1L1,inactive: 0.263
5,GGCCCUUACAAGAAGGUGATT against METAP1,inactive: -0.139
6,GCCUCGUUUUUGGACUGAUTT against GALNAC4S-6ST,inactive: 0.218
7,GCACCUAUAUUUACUACUUTT against TTC3,active: -1.17
8,GGAAUUAAGUCAACCACGUTT against SPAG9,inactive: 0.0795
9,CCUUCACUUGAGUAGCAGATT against KLHL8,inactive: -0.835
10,CGAAGAGUGAGCUAACAAATT against 6-Sep,inactive: -0.732
11,CGGUAGUGAUAAAAGCUCATT against TPX2,inactive: -0.564
12,GCAAGGAAGAAAUUUGUGATT against ERCC1,inactive: -0.566
13,CGGUGCUUCGGAUCUACUATT against CDIPT,inactive: 0.303
14,GCGGGACACUGUUAAUCCATT against SYTL4,inactive: 0.694
15,GGAUGACAAUUUAAUUUGUTT against PAIP1,inactive: -0.0178
16,AGCUGAUAGUAUCCGGCUATT against IRF5,inactive: -0.146
17,CAAUAUCUACAGGAGAAAATT against PPIL6,inactive: -0.215
18,GGUGAAUCACUAUUCAAUUTT against RNF128,inactive: -0.377
19,CCUUGGUGCUGUAUAUCUATT against FGD1,inactive: 0.414
20,GCUCAGCAAUUUUCCGGAATT against SLC2A2,inactive: -0.498
21,CCAACUUUAUGUCUACUUUTT against MCART6,inactive: 0.714
22,GCAUCUGAUCGAACACCUATT against ZKSCAN5,inactive: -0.229

# A second format for some results above.
row	Sequence	median seed-adjusted z-score
1	UGAAGGCUGUUGCGCCGAATT against EGR4	inactive: 0
13	CGGUGCUUCGGAUCUACUATT against CDIPT	inactive: 0.303
20	GCUCAGCAAUUUUCCGGAATT against SLC2A2	inactive: -0.498
21	CCAACUUUAUGUCUACUUUTT against MCART6	inactive: 0.714
